Source: PubChem BioAssay AID652243 (Drosophila RNAi Screening Center, 2013)
Assay: 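Knock-downs that decrease or increase androgen receptor reporter signal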 (primary screen). Cell system: Drosophila S2R+ cells. Reagent: long dsRNA against Drosophila genes. Timing: 72 h (48 h, then 24 h hormone). Conditions: synthetic androgen R1881 at 10 nM for 24 h. Detection: 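Firefly light from an androgen-responsive reporter and Renilla control light per well, raw and unnormalised, for each of two replicates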. Reading the numbers: firefly reporter light: higher = more light from androgen-responsive reporter; Renilla control light: higher = more constitutive control signal (cell number, transfection). Active means: 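Hit when the log firefly-to-Renilla ratio dropped or increased by a fixed fold versus the mean of GFP or LacZ controls across duplicate plates; lowering cut given as 1.5 and as 3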. Calls: active = hit: reporter lowered or raised; inactive = no hit.
The deposit covers about 24,000 reagents; below is an unselected part of those that have a named target and a result. Of all reagents, 246 (1%) were called active. 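Plates not normalised; calls are printed but the firefly/Renilla ratio behind them is not deposited; fold cut for lowering reported inconsistently.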 Raw values vary from plate to plate and are shown uncorrected. Reagents against one gene are numbered here. Names joined by + are all predicted targets of the reagent. Not stated in the record: the amount of reagent.

Target gene	reagent	firefly reporter light, replicate 1	firefly reporter light, replicate 2	Renilla control light, replicate 1	Renilla control light, replicate 2	Outcome
CG3500	1	2.65e5	2.73e5	1.70e6	1.49e6	inactive
CG3500	2	4.90e5	6.04e5	6.98e5	5.81e5	inactive
CG8419	1	1.62e5	1.30e5	1.56e6	1.09e6	inactive
CG14752	1	3.65e5	3.85e5	2.08e6	2.35e6	inactive
CG14205	1	3.11e5	1.48e5	1.14e6	7.04e5	inactive
CG14205	2	3.64e5	5.45e5	1.46e6	2.18e6	inactive
CG14205	3	9.55e5	1.05e6	1.91e6	1.91e6	inactive
Sid	1	2.07e5	2.17e5	2.49e6	3.11e6	inactive
Sid	2	3.87e5	4.97e5	5.04e5	7.58e5	inactive
lncRNA:CR33963	1	6.30e5	5.61e5	1.55e6	1.07e6	inactive
bves	1	1.41e5	1.75e5	5.11e5	3.15e5	inactive
bves	2	2.29e5	2.21e5	7.12e5	4.39e5	inactive
Dhx15	1	1.47e6	1.12e6	1.95e6	1.68e6	inactive
Dhx15	2	9.50e5	9.03e5	1.19e6	1.09e6	inactive
CG31249	1	60922	68123	1.12e6	9.60e5	inactive
Adk2	1	7.20e5	8.74e5	1.23e6	1.47e6	inactive
Adk2	2					inactive
Usf	1	1.87e5	1.25e5	3.23e6	2.43e6	inactive
Usf	2	5.11e5	2.89e5	9.88e5	3.27e5	inactive
wor	1	1.75e5	1.96e5	2.27e6	2.77e6	inactive
wor	2	4.20e5	3.03e5	9.31e5	5.81e5	inactive
CG42514	1	21901	23272	2.62e5	2.14e5	inactive
RpL38	1	1.04e5	1.08e5	1.04e6	1.16e6	inactive
CG42375 + CG9288	1	58029	66155	1.30e5	1.43e5	inactive
CG14491	1	98445	1.14e5	2.64e6	2.64e6	inactive
CG14491	2	3.50e5	4.47e5	9.99e5	9.99e5	inactive
Fbl6	1	5.32e5	5.66e5	6.30e5	7.79e5	inactive
Fbl6	2	9.23e5	8.67e5	1.74e6	1.26e6	inactive
CG13427	1	97736	1.11e5	1.34e6	1.31e6	inactive
CG15236	1	1.93e5	2.70e5	1.31e6	1.68e6	inactive
CG15236	2	3.25e5	3.40e5	1.56e6	1.27e6	inactive
CG15236	3	9.22e5	7.99e5	1.83e6	1.50e6	inactive
Sf3b1	1	63857	85991	6.44e5	6.63e5	inactive
Sf3b1	2	2.01e5	4.20e5	7.74e5	1.28e6	inactive
CG3558	1	8.95e5	7.02e5	3.28e6	1.78e6	inactive
CG3558	2	1.64e5	1.44e5	8.67e5	9.94e5	inactive
Oli	1	8.09e5	9.78e5	1.00e6	1.36e6	inactive
Oli	2	3.53e5	4.90e5	5.09e5	7.98e5	inactive
dpa	1	3.21e5	2.45e5	2.00e6	1.65e6	inactive
CG3337	1	4.66e5	4.95e5	2.83e6	3.74e6	inactive
asRNA:CR43476 + CG42534	1	8.66e5	9.53e5	1.13e6	1.29e6	inactive
CG10936	1	1.36e5	1.35e5	3.52e5	3.10e5	inactive
CG10936	2	1.88e5	1.62e5	4.83e5	4.76e5	inactive
CG10936	3	71651	73161	1.14e6	1.14e6	inactive
lama	1	7.89e5	7.06e5	1.34e6	1.35e6	inactive
Vps36	1	1.80e5	1.94e5	2.41e6	2.38e6	inactive
CG30046	1	2.38e5	2.90e5	8.87e5	1.37e6	inactive
Saf-B	1	24989	69168	4.02e5	5.81e5	inactive
Saf-B	2	5.63e5	1.08e6	8.75e5	1.22e6	inactive
dpr17	1	77275	56129	20138	1.68e5	inactive
dpr17	2	256	1804			inactive
CG13123	1	1.26e5	1.08e5	1.05e6	9.67e5	inactive
Cpr64Ad	1	1.86e5	1.80e5	1.91e6	2.16e6	inactive
Cpr64Ad	2	9.41e5	6.15e5	7.99e5	8.44e5	inactive
Grd	1	2.67e5	1.86e5	1.98e6	2.04e6	inactive
Grd	2	1.94e5	4.11e5	5.49e5	9.59e5	inactive
CG34453	1	8.27e5	7.21e5	1.83e6	2.04e6	inactive
CG3309	1	88706	1.13e5	1.74e6	1.67e6	inactive
CG3309	2	3.42e5	2.88e5	3.28e5	3.54e5	inactive
Sec8	1	33234	46998	3.86e5	4.75e5	inactive
Tat	1	2.50e5	2.10e5	3.44e6	2.11e6	inactive
SdhA	1	8.86e5	1.26e6	1.24e6	1.41e6	inactive
CG44433	1	1.40e5	2.19e5	2.59e6	2.85e6	inactive
CG44433	2	67692	93492	7.72e5	1.13e6	inactive
CG44433	3	2.89e5	3.28e5	6.16e5	6.53e5	inactive
CG13751	1	3.74e5	2.99e5	2.38e6	1.74e6	inactive
Ir76a	1	37876	48624	4.65e5	4.40e5	inactive
Not10	1	89677	63918	4.41e5	3.64e5	inactive
Ir75a	1	1.36e5	1.65e5	1.24e6	1.58e6	inactive
exp	1	98409	1.10e5	3.95e5	4.76e5	inactive
exp	2	8.24e5	1.11e6	9.21e5	8.92e5	inactive
GNBP-like3	1	95127	1.27e5	1.66e6	1.89e6	inactive
twin	1	84274	1.28e5	7.93e5	7.98e5	inactive
twin	2	1.82e5	2.32e5	2.94e6	2.93e6	inactive
twin	3	5.77e5	6.21e5	2.69e5	1.82e5	inactive
twin	4	3.14e5	3.88e5	7.19e5	7.19e5	inactive
